The values below come from the supplement of paper PMC7666118.

Sequences of proteins named here, by UniProt entry; tags and fusion partners are left off. A change or cut given only in a name is not applied to a line headed by its entry.
UniProt O96008: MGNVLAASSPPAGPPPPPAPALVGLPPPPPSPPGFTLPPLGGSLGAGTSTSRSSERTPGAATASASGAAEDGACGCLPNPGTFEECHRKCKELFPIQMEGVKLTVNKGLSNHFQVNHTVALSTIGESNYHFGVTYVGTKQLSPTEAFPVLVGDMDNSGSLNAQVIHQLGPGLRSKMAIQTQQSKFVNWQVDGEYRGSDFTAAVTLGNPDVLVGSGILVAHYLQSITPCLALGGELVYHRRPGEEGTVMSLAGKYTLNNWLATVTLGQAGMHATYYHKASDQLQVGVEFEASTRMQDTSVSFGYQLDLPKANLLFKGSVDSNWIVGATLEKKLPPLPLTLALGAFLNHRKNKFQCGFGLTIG
UniProt Q6ZXV5: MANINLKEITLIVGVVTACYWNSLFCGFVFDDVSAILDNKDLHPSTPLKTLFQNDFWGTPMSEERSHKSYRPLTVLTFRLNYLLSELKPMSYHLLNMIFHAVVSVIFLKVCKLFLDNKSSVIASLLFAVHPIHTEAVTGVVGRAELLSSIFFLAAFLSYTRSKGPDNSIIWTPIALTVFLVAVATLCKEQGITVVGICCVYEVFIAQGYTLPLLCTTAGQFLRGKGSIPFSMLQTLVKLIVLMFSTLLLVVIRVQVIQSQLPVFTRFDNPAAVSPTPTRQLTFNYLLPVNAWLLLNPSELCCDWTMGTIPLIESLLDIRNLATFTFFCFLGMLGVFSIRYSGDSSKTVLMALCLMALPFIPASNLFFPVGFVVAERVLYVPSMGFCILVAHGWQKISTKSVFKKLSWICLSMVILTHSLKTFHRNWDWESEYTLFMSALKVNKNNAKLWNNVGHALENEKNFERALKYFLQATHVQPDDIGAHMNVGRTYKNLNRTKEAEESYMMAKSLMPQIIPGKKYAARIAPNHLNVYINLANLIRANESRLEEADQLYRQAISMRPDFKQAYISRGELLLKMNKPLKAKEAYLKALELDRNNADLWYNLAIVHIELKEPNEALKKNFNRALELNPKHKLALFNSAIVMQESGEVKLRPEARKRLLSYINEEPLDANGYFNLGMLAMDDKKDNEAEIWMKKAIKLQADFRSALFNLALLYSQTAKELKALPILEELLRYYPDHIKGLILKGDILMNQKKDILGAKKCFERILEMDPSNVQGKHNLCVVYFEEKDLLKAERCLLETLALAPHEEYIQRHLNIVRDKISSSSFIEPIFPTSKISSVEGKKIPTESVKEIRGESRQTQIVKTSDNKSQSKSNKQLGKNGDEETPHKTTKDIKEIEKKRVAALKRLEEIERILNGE
UniProt Q9C0C2: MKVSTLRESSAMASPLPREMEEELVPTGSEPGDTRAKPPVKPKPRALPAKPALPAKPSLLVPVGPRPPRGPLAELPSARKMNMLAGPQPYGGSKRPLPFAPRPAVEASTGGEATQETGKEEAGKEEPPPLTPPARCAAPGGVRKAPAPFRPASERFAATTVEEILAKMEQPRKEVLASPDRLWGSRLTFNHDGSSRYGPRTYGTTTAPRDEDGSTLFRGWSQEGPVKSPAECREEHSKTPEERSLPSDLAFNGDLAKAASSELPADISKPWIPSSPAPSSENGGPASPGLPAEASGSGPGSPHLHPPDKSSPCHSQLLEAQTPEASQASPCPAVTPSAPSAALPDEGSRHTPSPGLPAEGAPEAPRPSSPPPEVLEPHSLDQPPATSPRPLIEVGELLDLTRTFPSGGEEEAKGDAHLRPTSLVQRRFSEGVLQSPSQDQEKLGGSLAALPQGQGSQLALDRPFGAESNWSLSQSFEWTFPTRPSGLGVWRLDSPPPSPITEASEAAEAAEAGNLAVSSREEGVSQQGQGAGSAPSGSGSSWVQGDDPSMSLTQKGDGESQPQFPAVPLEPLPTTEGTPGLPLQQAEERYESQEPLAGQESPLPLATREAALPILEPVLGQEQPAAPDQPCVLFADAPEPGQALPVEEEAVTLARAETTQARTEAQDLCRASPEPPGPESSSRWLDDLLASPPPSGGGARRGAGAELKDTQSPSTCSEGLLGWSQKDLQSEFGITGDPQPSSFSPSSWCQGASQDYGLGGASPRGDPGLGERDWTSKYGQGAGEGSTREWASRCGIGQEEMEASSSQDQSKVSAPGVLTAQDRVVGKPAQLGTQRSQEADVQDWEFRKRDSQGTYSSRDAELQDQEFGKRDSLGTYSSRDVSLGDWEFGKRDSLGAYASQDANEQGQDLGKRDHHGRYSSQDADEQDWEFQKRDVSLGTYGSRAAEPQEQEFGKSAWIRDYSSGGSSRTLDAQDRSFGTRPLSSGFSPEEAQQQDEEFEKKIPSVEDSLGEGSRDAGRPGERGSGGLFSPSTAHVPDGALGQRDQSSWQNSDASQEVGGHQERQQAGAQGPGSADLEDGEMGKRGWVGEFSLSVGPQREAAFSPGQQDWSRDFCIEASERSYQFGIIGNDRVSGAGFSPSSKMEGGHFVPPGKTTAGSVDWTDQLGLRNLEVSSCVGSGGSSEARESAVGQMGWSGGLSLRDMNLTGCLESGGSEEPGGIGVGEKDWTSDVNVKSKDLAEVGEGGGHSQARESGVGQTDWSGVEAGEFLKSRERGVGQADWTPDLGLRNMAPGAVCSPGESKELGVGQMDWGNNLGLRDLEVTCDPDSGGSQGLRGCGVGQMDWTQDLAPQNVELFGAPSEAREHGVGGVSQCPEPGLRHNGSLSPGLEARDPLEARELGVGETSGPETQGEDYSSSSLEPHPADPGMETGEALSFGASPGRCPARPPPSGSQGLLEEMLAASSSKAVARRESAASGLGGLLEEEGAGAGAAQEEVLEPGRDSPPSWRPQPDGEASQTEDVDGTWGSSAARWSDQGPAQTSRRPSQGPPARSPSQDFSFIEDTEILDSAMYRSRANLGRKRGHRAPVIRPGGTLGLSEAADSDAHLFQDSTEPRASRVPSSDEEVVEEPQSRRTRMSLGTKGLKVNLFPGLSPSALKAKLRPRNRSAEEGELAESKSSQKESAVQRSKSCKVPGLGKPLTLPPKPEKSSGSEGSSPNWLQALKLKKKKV
UniProt O43399: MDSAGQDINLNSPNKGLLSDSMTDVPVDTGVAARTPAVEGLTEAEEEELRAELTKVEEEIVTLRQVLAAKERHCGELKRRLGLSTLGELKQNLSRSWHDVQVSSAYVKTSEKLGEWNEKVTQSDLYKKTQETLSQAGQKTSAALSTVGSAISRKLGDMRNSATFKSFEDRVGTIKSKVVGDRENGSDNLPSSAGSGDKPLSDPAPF
UniProt Q32P41: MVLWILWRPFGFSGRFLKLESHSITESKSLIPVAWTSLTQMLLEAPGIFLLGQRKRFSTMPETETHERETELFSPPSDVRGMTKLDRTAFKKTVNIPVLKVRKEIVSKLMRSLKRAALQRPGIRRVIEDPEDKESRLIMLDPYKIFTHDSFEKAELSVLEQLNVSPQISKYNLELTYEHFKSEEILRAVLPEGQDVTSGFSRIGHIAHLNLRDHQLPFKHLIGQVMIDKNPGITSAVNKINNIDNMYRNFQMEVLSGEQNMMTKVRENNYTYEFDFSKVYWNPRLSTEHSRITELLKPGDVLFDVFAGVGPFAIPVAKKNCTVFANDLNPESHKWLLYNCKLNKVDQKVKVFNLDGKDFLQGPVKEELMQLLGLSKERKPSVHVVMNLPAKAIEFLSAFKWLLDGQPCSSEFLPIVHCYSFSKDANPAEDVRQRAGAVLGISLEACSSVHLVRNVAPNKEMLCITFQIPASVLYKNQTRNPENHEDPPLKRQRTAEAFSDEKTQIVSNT
UniProt Q9Y4K3: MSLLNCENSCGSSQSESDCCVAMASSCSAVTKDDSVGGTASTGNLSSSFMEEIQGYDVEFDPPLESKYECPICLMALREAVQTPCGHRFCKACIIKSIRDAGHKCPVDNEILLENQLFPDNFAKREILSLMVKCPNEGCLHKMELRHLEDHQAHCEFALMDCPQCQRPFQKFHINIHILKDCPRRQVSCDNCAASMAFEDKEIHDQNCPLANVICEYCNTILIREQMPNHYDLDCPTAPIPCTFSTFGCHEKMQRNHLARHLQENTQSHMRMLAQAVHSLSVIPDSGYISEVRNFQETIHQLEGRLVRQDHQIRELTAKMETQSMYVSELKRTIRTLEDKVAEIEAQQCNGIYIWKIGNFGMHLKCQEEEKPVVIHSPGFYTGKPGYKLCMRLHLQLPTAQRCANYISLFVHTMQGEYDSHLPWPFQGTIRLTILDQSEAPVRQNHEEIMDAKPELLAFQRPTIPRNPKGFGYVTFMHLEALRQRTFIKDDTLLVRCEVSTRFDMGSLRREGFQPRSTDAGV
UniProt Q9UNS1: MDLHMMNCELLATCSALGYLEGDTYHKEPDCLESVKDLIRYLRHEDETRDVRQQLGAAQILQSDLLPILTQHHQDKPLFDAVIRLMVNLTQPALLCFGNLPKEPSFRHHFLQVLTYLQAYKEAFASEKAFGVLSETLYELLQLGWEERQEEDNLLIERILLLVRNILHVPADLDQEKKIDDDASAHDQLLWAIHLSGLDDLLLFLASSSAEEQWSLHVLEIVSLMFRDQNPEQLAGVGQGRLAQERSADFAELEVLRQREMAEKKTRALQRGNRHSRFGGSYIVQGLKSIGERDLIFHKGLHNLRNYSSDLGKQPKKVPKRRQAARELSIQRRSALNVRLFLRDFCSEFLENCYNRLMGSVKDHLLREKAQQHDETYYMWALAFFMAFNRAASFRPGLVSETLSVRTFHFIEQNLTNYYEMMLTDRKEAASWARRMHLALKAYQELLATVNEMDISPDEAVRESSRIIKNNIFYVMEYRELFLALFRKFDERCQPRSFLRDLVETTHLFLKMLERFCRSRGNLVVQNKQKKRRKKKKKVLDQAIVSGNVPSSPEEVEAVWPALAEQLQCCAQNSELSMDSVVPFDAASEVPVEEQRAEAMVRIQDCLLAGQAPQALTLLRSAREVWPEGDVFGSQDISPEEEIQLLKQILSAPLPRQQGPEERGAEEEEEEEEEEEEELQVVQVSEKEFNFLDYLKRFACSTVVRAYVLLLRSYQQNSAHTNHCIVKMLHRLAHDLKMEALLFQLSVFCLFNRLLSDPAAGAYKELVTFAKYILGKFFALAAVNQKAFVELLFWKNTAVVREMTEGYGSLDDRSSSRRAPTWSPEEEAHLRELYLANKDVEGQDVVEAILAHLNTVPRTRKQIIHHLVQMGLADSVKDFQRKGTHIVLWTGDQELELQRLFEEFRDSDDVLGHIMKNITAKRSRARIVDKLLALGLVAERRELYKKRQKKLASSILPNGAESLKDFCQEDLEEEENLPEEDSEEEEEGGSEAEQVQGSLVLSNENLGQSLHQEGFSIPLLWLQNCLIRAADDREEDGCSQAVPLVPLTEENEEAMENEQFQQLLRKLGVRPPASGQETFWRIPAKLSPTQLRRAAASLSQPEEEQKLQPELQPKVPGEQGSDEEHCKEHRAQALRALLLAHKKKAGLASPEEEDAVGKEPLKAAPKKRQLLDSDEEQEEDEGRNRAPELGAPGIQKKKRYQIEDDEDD
UniProt Q9UM00: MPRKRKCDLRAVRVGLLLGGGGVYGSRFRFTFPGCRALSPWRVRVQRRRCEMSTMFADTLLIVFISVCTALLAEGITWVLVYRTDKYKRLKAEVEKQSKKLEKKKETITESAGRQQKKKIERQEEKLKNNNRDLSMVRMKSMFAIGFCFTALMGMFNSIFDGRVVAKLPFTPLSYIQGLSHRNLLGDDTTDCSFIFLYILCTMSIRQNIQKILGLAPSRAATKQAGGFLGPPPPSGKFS
UniProt Q9NUH8: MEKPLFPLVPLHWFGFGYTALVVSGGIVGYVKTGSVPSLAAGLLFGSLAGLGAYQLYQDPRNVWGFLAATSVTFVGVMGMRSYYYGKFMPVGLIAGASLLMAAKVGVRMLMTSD
UniProt Q9H0V1: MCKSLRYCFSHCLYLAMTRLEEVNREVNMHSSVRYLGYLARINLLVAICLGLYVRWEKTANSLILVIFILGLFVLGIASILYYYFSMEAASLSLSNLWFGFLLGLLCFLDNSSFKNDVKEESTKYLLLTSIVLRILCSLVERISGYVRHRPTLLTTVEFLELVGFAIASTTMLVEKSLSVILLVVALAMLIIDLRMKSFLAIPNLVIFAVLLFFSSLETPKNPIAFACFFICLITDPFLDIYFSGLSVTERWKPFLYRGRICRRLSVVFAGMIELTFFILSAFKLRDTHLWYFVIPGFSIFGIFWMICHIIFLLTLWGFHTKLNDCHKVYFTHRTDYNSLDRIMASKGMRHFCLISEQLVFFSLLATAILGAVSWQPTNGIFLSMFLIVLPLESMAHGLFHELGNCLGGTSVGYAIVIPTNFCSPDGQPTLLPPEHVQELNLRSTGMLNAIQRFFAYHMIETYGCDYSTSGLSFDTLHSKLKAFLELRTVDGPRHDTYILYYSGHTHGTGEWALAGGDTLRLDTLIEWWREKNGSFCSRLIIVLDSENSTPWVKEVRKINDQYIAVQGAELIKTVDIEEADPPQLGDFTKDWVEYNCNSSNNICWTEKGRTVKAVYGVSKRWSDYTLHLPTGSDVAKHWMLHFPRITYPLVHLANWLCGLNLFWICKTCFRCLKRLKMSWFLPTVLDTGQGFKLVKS

The other results are listed elsewhere or left out.

Compound in this experiment: COc1ccc(Cn2ccc3cc(C)c(C(=O)NO)cc32)cc1
The experiment in a line: dose-dependent thermal stabilisation call (2D-TPP, DLPTP, 10% FDR) (binary (1 = stabilised)); higher = stabilised by the compound. As to conditions: system: HL-60 intact cells; concentration range 0.04-10 µM. How it is done: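 2D thermal proteome profiling in intact HL-60 cells treated with BRD-3811 (0, 0.04, 0.29, 2, 10 uM) for 90 min at 37 C, then heated 3 min at one of 12 temperatures (42-63.9 C). Soluble protein was quantified by TMT10 MS. The value is the DLPTP call of the paper: dose-dependent thermal stabilisation over all temperatures at 10% FDR (F-test of a dose-response against a flat model); one experiment, one call per tested protein.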
In the case of TOMM40 (UniProt O96008), the “dose-dependent thermal stabilisation call” value is inactive: 0.

Turning to TRIM26 (UniProt Q12899), the “dose-dependent thermal stabilisation call” value is inactive: 0.

On to TREX2 (UniProt Q9BQ50), for which the “dose-dependent thermal stabilisation call” value was inactive: 0.

Turning to TMEM222 (UniProt Q9H0R3), the “dose-dependent thermal stabilisation call” value was inactive: 0.

For TPT1 (UniProt P13693), the “dose-dependent thermal stabilisation call” value is inactive: 0.

With TMTC3 (UniProt Q6ZXV5), the “dose-dependent thermal stabilisation call” value is inactive: 0.

Take TNKS1BP1 (UniProt Q9C0C2): the “dose-dependent thermal stabilisation call” value is inactive: 0.

On to TPD52L2 (UniProt O43399), for which the “dose-dependent thermal stabilisation call” value was inactive: 0.

In the case of TOLLIP (UniProt Q9H0E2), the “dose-dependent thermal stabilisation call” value was inactive: 0.

In the case of TMEM30A (UniProt Q9NV96), the “dose-dependent thermal stabilisation call” value was inactive: 0.

Take TRMT5 (UniProt Q32P41): the “dose-dependent thermal stabilisation call” value is inactive: 0.

Take TRNT1 (UniProt Q96Q11): the “dose-dependent thermal stabilisation call” value was inactive: 0.

As to TRAF3IP3 (UniProt Q9Y228), the “dose-dependent thermal stabilisation call” value is inactive: 0.

Regarding TRAF6 (UniProt Q9Y4K3), the “dose-dependent thermal stabilisation call” value is inactive: 0.

THOC5 (UniProt Q13769): the “dose-dependent thermal stabilisation call” value is inactive: 0.

Consider TNFRSF8 (UniProt P28908), for which the “dose-dependent thermal stabilisation call” value is inactive: 0.

As to TSSC1 (UniProt Q53HC9), the “dose-dependent thermal stabilisation call” value is inactive: 0.

For the target TOR1AIP1 (UniProt Q5JTV8), the “dose-dependent thermal stabilisation call” value is inactive: 0.

For the target TIMP1 (UniProt P01033), the “dose-dependent thermal stabilisation call” value was inactive: 0.

For TIMELESS (UniProt Q9UNS1), the “dose-dependent thermal stabilisation call” value was inactive: 0.

As for TMCO1 (UniProt Q9UM00), the “dose-dependent thermal stabilisation call” value is inactive: 0.

Turning to TLK1 (UniProt Q9UKI8), the “dose-dependent thermal stabilisation call” value is inactive: 0.

Regarding TIMM50 (UniProt Q3ZCQ8), the “dose-dependent thermal stabilisation call” value was inactive: 0.

For the target TMEM14B (UniProt Q9NUH8), the “dose-dependent thermal stabilisation call” value is inactive: 0.

Regarding TRIP6 (UniProt Q15654), the “dose-dependent thermal stabilisation call” value was inactive: 0.

Take TRMT2A (UniProt Q8IZ69): the “dose-dependent thermal stabilisation call” value was inactive: 0.

Regarding TMEM41A (UniProt Q96HV5), the “dose-dependent thermal stabilisation call” value is inactive: 0.

With TMEM20 (UniProt Q2M3R5), the “dose-dependent thermal stabilisation call” value is inactive: 0.

Turning to TSC22D2 (UniProt O75157), the “dose-dependent thermal stabilisation call” value is inactive: 0.

On to TMED10 (UniProt P49755), for which the “dose-dependent thermal stabilisation call” value was inactive: 0.

For THYN1 (UniProt Q9P016), the “dose-dependent thermal stabilisation call” value was inactive: 0.

Consider TMEM173 (UniProt Q86WV6), for which the “dose-dependent thermal stabilisation call” value is inactive: 0.

In the case of TRA2A (UniProt Q13595), the “dose-dependent thermal stabilisation call” value is inactive: 0.

Regarding TTC13 (UniProt Q8NBP0), the “dose-dependent thermal stabilisation call” value is inactive: 0.

As to TMEM168 (UniProt Q9H0V1), the “dose-dependent thermal stabilisation call” value was inactive: 0.

TMEM131 (UniProt Q92545): the “dose-dependent thermal stabilisation call” value is inactive: 0.
